Experimental data as given in the supplement of paper PMC10849652.
This is one part of the list.

Amino acid sequences for entries named in this document (tags omitted). A change or cut given only in a name is not applied to a line headed by its entry.
UniProt Q9Y2J2, whole entry, looked up: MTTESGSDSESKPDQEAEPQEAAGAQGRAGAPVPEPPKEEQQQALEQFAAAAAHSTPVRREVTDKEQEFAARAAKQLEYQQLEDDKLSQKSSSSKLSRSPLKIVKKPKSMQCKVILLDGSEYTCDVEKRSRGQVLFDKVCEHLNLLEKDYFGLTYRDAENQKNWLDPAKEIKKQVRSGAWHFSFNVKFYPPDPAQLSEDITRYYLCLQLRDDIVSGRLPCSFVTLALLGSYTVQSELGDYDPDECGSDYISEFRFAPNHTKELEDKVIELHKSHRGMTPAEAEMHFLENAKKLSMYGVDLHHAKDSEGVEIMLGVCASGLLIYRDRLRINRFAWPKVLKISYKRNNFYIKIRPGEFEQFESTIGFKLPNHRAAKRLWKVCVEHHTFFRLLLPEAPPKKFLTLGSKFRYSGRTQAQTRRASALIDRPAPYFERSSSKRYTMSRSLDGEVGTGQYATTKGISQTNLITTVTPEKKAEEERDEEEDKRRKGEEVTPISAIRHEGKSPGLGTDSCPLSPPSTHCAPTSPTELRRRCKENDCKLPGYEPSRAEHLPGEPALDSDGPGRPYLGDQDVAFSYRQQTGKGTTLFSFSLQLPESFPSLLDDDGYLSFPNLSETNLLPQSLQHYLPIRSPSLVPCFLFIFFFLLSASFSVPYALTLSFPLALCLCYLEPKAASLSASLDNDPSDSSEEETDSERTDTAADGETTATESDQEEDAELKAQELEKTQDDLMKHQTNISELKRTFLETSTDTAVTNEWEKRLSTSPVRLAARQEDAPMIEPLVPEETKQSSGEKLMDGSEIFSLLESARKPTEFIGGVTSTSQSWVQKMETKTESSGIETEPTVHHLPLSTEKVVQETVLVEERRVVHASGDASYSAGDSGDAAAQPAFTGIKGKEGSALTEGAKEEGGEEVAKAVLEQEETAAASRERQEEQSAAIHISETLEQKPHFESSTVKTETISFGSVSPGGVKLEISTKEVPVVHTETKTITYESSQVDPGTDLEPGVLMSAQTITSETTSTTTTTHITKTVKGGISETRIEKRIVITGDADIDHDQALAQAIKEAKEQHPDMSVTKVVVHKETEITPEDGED
UniProt Q7Z2K6: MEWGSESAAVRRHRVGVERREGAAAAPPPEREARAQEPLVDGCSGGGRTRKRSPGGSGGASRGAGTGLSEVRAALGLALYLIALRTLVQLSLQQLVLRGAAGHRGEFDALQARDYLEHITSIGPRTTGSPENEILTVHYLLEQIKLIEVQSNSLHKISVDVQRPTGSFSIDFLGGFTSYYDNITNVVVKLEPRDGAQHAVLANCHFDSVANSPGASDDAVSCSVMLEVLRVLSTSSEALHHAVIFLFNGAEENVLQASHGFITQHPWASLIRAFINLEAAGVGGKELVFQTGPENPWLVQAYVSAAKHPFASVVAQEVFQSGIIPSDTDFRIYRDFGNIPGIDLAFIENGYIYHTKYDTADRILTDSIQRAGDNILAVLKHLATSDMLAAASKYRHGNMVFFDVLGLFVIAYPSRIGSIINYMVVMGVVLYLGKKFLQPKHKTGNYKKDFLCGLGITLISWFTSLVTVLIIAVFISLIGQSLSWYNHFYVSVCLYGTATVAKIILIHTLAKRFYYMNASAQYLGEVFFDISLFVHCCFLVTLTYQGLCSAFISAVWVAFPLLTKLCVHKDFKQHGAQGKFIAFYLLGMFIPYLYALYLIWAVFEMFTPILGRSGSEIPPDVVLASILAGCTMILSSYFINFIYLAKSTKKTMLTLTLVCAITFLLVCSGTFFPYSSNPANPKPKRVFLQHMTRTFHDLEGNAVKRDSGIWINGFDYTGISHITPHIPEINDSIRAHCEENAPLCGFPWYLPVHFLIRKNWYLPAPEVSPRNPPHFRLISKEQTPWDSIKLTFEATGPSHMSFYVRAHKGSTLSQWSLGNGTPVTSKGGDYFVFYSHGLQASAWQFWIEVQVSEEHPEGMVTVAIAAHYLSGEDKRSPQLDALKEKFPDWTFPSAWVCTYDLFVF
UniProt P84090, whole entry, looked up: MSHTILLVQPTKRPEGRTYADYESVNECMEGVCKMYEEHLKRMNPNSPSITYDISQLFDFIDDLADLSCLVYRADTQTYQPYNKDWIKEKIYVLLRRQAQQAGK
UniProt Q13158: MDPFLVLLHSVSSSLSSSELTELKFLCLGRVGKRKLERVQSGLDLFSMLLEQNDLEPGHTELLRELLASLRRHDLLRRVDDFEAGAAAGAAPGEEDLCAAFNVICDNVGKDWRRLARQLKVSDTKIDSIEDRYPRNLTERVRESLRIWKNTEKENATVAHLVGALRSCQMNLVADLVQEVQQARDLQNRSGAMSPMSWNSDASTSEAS
UniProt Q5BKY9: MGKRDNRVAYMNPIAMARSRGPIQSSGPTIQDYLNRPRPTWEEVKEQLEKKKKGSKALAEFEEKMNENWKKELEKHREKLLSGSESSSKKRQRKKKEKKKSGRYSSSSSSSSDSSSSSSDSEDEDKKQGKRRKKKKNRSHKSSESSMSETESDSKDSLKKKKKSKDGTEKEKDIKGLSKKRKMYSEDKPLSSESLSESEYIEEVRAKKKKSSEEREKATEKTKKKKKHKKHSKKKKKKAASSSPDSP
UniProt Q7L775: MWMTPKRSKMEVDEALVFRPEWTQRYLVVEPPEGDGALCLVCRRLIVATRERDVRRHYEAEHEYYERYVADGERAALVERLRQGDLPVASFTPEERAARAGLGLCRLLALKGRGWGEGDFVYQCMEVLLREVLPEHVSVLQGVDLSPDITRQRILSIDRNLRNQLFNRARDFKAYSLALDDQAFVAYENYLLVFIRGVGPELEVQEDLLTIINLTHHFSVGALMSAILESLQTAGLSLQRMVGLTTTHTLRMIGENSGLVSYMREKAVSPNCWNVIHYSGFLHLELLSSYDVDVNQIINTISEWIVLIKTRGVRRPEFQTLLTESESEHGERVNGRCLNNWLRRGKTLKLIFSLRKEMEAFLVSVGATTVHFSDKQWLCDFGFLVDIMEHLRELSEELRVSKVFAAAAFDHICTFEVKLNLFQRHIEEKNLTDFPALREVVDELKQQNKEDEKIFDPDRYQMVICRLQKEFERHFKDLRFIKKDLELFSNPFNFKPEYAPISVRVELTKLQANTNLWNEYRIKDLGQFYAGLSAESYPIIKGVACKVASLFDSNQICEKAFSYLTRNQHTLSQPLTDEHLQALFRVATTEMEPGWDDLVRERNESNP
UniProt Q9Y3B2, whole entry, looked up: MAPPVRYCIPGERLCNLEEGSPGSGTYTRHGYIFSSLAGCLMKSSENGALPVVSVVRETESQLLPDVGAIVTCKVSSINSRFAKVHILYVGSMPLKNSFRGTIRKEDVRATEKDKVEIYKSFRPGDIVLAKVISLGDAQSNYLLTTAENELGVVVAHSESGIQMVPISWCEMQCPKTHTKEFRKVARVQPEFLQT
UniProt Q96RQ1: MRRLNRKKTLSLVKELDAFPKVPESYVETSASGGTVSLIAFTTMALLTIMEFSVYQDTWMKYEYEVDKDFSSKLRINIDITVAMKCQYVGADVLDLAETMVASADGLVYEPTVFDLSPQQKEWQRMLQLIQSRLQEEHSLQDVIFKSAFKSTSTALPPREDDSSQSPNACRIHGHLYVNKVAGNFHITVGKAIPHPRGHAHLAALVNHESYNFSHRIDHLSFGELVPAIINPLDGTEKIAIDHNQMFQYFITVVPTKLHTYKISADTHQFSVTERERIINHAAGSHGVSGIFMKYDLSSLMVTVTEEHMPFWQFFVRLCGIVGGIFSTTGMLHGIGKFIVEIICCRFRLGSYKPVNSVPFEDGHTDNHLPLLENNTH
UniProt P38117: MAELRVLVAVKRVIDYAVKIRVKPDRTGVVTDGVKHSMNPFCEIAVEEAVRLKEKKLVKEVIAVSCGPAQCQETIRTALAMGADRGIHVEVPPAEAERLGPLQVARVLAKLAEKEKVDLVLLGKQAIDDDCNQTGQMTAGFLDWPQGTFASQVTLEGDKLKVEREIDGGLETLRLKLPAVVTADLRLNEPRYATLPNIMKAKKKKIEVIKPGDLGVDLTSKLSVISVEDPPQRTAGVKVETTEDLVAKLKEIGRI
UniProt Q5RKV6, whole entry, looked up: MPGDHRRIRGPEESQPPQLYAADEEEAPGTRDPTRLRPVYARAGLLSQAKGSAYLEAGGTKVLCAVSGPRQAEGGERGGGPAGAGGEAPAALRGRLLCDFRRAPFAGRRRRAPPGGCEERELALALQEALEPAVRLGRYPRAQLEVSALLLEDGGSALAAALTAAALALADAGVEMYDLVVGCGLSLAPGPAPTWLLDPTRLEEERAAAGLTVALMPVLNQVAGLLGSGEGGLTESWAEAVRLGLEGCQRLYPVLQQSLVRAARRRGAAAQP
UniProt A0FGR8: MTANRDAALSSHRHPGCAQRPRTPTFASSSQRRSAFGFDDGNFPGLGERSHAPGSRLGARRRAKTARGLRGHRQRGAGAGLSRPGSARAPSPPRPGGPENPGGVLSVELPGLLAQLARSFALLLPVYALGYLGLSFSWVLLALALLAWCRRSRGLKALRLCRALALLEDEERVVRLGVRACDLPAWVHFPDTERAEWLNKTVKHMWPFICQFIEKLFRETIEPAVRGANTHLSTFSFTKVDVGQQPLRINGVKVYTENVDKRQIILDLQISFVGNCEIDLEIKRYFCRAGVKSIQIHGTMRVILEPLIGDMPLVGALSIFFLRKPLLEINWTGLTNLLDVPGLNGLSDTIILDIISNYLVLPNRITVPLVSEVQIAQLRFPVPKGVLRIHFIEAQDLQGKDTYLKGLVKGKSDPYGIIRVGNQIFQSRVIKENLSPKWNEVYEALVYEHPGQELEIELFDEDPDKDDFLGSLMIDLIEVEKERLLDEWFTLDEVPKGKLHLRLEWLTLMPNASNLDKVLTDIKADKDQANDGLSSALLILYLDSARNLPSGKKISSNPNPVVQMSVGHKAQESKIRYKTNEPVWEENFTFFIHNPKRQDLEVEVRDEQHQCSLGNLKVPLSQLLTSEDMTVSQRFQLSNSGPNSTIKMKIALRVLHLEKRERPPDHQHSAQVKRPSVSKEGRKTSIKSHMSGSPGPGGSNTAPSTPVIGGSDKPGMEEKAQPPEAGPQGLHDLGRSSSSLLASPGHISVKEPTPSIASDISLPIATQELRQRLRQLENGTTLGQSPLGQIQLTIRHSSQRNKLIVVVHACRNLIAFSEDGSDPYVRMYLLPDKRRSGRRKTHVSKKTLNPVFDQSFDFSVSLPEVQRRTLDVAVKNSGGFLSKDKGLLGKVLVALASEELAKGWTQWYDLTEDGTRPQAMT
UniProt Q96PL5: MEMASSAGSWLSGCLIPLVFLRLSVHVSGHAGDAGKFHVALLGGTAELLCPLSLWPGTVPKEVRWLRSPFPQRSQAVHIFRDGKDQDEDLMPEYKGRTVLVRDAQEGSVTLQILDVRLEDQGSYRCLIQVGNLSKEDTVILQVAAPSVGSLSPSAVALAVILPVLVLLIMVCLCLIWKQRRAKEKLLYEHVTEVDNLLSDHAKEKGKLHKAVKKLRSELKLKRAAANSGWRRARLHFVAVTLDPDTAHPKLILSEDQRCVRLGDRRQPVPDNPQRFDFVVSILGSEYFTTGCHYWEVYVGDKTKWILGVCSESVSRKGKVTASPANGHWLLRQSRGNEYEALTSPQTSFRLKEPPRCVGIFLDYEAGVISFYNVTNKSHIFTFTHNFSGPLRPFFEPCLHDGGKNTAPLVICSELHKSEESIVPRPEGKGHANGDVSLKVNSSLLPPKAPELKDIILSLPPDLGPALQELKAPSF
UniProt Q9NZ08: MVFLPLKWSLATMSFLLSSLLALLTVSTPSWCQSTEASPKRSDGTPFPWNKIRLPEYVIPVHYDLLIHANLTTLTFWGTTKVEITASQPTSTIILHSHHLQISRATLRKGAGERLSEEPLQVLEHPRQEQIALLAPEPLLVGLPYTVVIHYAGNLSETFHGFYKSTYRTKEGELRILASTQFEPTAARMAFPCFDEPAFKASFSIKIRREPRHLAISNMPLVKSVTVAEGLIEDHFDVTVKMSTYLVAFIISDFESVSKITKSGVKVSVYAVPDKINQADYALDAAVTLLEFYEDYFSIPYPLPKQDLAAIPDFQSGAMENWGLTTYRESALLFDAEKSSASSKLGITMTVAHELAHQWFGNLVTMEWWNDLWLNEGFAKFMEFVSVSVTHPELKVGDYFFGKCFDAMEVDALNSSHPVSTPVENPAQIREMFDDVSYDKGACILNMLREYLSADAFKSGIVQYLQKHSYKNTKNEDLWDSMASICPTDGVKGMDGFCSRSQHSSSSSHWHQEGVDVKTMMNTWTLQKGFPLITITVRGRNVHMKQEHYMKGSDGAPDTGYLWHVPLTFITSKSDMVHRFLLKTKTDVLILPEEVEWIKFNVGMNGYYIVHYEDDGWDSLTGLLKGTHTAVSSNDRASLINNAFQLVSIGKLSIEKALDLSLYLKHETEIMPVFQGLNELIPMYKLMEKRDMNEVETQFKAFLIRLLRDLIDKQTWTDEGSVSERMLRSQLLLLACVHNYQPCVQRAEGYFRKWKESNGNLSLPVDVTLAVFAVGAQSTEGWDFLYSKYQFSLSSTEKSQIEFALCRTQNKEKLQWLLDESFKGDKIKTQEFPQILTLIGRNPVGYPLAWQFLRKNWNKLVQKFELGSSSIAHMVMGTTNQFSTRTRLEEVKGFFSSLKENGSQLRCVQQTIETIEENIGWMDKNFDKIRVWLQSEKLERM

Columns and labels:
Test in all cases: log2 fold change, soluble protein after heating vs DMSO (PISA); higher = thermal stabilisation; K562 cells, 10 uM, 30 min; active = over 0.2 and 3.5 SD of the protein, either way, in both replicates (recomputed)
[1] = compound: CC[C@@H]1C(=O)N(C)c2cnc(Nc3ccc(C(=O)NC4CCN(C)CC4)cc3OC)nc2N1C1CCCC1
Outline: (§1)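 K562 cells at 2×10^6 cells/mL were exposed to 10 μM compound for 30 min, then aliquots were heated for 3 min across 48°C-58°C, pooled, and extracted in PBS containing 0.5% NP-40 at 4°C. The supernatant after 21,000xg for 90 min was taken as soluble protein and measured by TMTpro 16plex LC-MS/MS with channel sums equalised. Thermal stability is reported relative to control samples, with values from duplicates. Fold changes are given on a log2 scale.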

[2] = compound: CC[C@@H]1C(=O)N(C)c2cnc(Nc3ccc(C(=O)N[C@H]4CC[C@H](N5CCN(CC6CC6)CC5)CC4)cc3OC)nc2N1C(C)C [volasertib]
Outline: as §1

[3] = compound: CC[C@H](C)N1C=C(C2=C(C=C(C=C21)C3=CN=C(C=C3)N4CCNCC4)C(=O)NCC5=C(C=C(NC5=O)C)C)C
Outline: as §1

[4] = compound: CC[C@H](C)[C@@H](C(=O)N[C@@H]([C@@H](C)O)C(=O)N[C@@H](CC(C)C)C(=O)[C@]1(CO1)C)NC(=O)[C@H]([C@@H](C)CC)N(C)C(=O)C [epoxomicin]
Outline: as §1

[5] = compound: CCn1c(C(=O)N(C2CC2)C2CC2)cc2c3c(ncn3C)c(Nc3cc(C)n(C)n3)nc21
Outline: as §1

[6] = compound: CCn1cc(-c2ccnc3[nH]c(-c4cccc(CN(C)C)c4)cc23)c(-c2ccc(NC(=O)N(C)C)cc2)n1
Outline: as §1

[7] = compound: CN(C)CC(=O)Nc1ccc2[nH]c(=O)c3ccccc3c2c1
Outline: as §1

[8] = compound: CN(CCOC1=CC=C(C=C1)C[C@H]2C(=O)NC(=O)S2)C3=CC=CC=N3 (racemic) [rosiglitazone]
Outline: as §1

[9] = compound: CN1C2=C(C3=C1C(=O)N(N=C3)CC4=CC(=CC=C4)N)SC(=C2)S(=O)C
Outline: as §1

[10] = compound: CN1CCC(CNc2ccc3ncc(-c4cccc(OC(F)(F)F)c4)n3n2)CC1
Outline: as §1

[11] = compound: CN1CCN(CCOc2cc(OC3CCOCC3)c3c(Nc4c(Cl)ccc5c4OCO5)ncnc3c2)CC1 [saracatinib]
Outline: as §1

[12] = compound: CN1CCN(c2nc(C3=C(c4c[nH]c5ccccc45)C(=O)NC3=O)c3ccccc3n2)CC1 [sotrastaurin]
Outline: as §1

[13] = compound: CN1CC[C@H](c2c(O)cc(O)c3c(=O)cc(-c4ccccc4Cl)oc23)[C@H](O)C1 [alvocidib]
Outline: as §1

[14] = compound: CN1CCc2c(c3ccccc3n2Cc2ccc(C(=O)NO)cc2)C1 [Tubastatin A]
Outline: as §1

[15] = compound: CNC(=O)C1=CC=CC=C1NC2=NC(=NC=C2Cl)NC3=C(C=C(C=C3)N4CCOCC4)OC
Outline: as §1

[16] = compound: CNC(=O)c1ccc(Nc2ncc(C(F)(F)F)c(NCc3nccnc3N(C)S(C)(=O)=O)n2)cc1 [defactinib]
Outline: as §1

[17] = compound: CNCc1ccc(-c2[nH]c3cc(F)cc4c3c2CCNC4=O)cc1 [rucaparib]
Outline: as §1

[18] = compound: CNc1nc(-c2ccc3c(N)n[nH]c3c2)cc(N2C[C@@H](C(=O)NC3CCCCC3)CC[C@H]2C)n1
Outline: as §1

[19] = compound: COC(=O)N[C@@H](C)CNc1nccc(-c2cn(C(C)C)nc2-c2cc(Cl)cc(NS(C)(=O)=O)c2F)n1 [encorafenib]
Outline: as §1

[20] = compound: COC(=O)[C@H](CCSC)NC(=O)C1=C(C=C(C=C1)NC[C@H](CS)N)C2=CC=CC=C2
Outline: as §1

Measured: log2 fold change

EPB41L3 (UniProt Q9Y2J2)
inactive: [1] 0.034 | [2] -0.039 | [3] 0.031 | [4] 0.02 | [5] 0.029 | [6] -0.045 | [7] -0.043 | [8] 0.001 | [9] -0.088 | [10] -0.086 | [11] -0.038 | [12] -0.012 | [13] -0.001 | [14] 0.003 | [15] 0.004 | [16] -0.033 | [17] -0.001 | [18] 0.027 | [19] -0.027 | [20] 0

ERMP1 (UniProt Q7Z2K6)
inactive: [1] 0.03 | [2] 0.015 | [3] -0.069 | [4] -0.022 | [5] 0 | [6] 0.012 | [7] 0.007 | [8] 0.008 | [9] -0.026 | [10] 0.019 | [11] 0.046 | [12] 0.053 | [13] 0.01 | [14] -0.027 | [15] 0.001 | [16] -0.051 | [17] -0.004 | [18] -0.04 | [19] -0.016 | [20] 0.039

ERH (UniProt P84090)
inactive: [1] 0.053 | [2] 0.11 | [3] 0.033 | [4] 0.183 | [5] 0.037 | [6] 0.048 | [7] -0.019 | [8] -0.019 | [9] -0.012 | [10] 0.087 | [11] -0.016 | [13] -0.144 | [14] 0.042 | [15] -0.088 | [16] -0.072 | [17] 0.06 | [18] -0.001 | [19] -0.063 | [20] -0.004

Reprinted from the listing (two entries):
ERMP1 (UniProt Q7Z2K6)
inactive: [1] 0.03 | [2] 0.015 | [3] -0.069 | [4] -0.022 | [5] 0 | [6] 0.012 | [7] 0.007 | [8] 0.008 | [9] -0.026 | [10] 0.019 | [11] 0.046 | [12] 0.053 | [13] 0.01 | [14] -0.027 | [15] 0.001 | [16] -0.051 | [17] -0.004 | [18] -0.04 | [19] -0.016 | [20] 0.039

ERH (UniProt P84090)
inactive: [1] 0.053 | [2] 0.11 | [3] 0.033 | [4] 0.183 | [5] 0.037 | [6] 0.048 | [7] -0.019 | [8] -0.019 | [9] -0.012 | [10] 0.087 | [11] -0.016 | [13] -0.144 | [14] 0.042 | [15] -0.088 | [16] -0.072 | [17] 0.06 | [18] -0.001 | [19] -0.063 | [20] -0.004

(cont.)

FADD (UniProt Q13158)
inactive: [1] 0.127 | [2] -0.138 | [3] -0.003 | [4] -0.048 | [5] -0.027 | [7] -0.048 | [8] 0.026 | [9] -0.015 | [11] 0.089 | [12] -0.13 | [13] -0.107 | [14] -0.098 | [15] -0.071 | [16] -0.072 | [17] 0.272 | [18] -0.011 | [19] 0.155 | [20] 0.011

FAM133B (UniProt Q5BKY9)
inactive: [1] 0.005 | [2] 0.046 | [3] 0.005 | [4] 0.059 | [5] 0.004 | [6] 0.016 | [7] -0.07 | [8] 0.018 | [9] -0.02 | [10] -0.028 | [11] 0 | [12] 0.041 | [13] 0 | [14] -0.016 | [15] -0.098 | [16] -0.012 | [17] -0.008 | [18] 0.033 | [19] -0.002 | [20] 0.011

EPM2AIP1 (UniProt Q7L775)
inactive: [1] -0.094 | [2] -0.141 | [3] 0.008 | [4] 0.009 | [5] 0.017 | [6] -0.013 | [7] 0 | [8] 0.025 | [9] -0.077 | [10] -0.175 | [11] 0.032 | [12] 0.01 | [13] -0.061 | [14] -0.009 | [15] -0.012 | [16] -0.025 | [17] 0.001 | [18] -0.046 | [19] 0.012 | [20] -0.003

EXOSC1 (UniProt Q9Y3B2)
inactive: [1] -0.009 | [2] -0.024 | [3] 0.033 | [4] -0.09 | [5] -0.009 | [6] 0.07 | [7] 0.005 | [8] -0.011 | [9] 0.129 | [10] 0.111 | [11] -0.107 | [12] 0.029 | [13] 0.061 | [14] -0.009 | [15] 0.019 | [16] -0.002 | [17] 0.128 | [18] 0.071 | [19] 0.115 | [20] -0.012

ERGIC2 (UniProt Q96RQ1)
inactive: [1] -0.041 | [2] -0.021 | [3] 0.026 | [4] -0.017 | [5] -0.006 | [6] -0.012 | [7] 0.029 | [8] 0.034 | [9] -0.067 | [10] -0.054 | [11] 0.089 | [12] -0.011 | [13] -0.052 | [14] -0.054 | [15] 0.009 | [16] -0.04 | [17] -0.089 | [18] 0.042 | [19] 0.049 | [20] -0.069

ERGIC1 (UniProt Q969X5)
inactive: [1] 0.005 | [2] -0.004 | [3] -0.066 | [4] 0.015 | [5] 0.035 | [6] -0.007 | [7] -0.01 | [8] 0.016 | [9] -0.029 | [10] -0.016 | [11] -0.013 | [12] 0.052 | [13] -0.013 | [14] 0.016 | [15] 0.035 | [16] -0.017 | [17] 0.001 | [18] -0.048 | [19] 0 | [20] 0.025

ETF1 (UniProt P62495)
inactive: [1] 0.01 | [2] -0.046 | [3] 0.038 | [4] 0.01 | [5] 0 | [6] -0.02 | [7] -0.023 | [8] 0.048 | [9] -0.048 | [10] -0.085 | [11] 0.006 | [12] 0.037 | [13] -0.045 | [14] -0.023 | [15] 0.031 | [16] -0.017 | [17] -0.045 | [18] 0.01 | [19] 0.02 | [20] -0.029

ETFB (UniProt P38117)
inactive: [1] -0.077 | [2] 0.118 | [3] -0.021 | [4] 0.024 | [5] -0.003 | [6] 0.011 | [7] -0.029 | [8] 0.02 | [9] -0.059 | [10] -0.026 | [11] -0.002 | [12] 0.044 | [13] -0.012 | [14] -0.052 | [15] 0 | [16] 0.015 | [17] -0.072 | [18] 0.033 | [19] -0.025 | [20] 0.026

EXOSC6 (UniProt Q5RKV6)
inactive: [1] 0.023 | [2] 0.061 | [3] -0.058 | [4] 0.023 | [5] 0.016 | [6] 0.024 | [7] 0.008 | [8] -0.031 | [9] -0.071 | [10] 0.041 | [11] 0.052 | [12] 0.035 | [13] 0.003 | [14] -0.028 | [15] 0.018 | [16] 0.01 | [17] 0.024 | [18] -0.025 | [19] -0.04 | [20] 0.01

ESYT2 isoform 2 (UniProt A0FGR8)
inactive: [1] -0.015 | [2] -0.17 | [3] 0.049 | [4] 0.019 | [5] -0.046 | [6] -0.005 | [7] 0.026 | [8] 0.019 | [9] -0.026 | [10] -0.085 | [11] 0.007 | [12] 0.05 | [13] -0.03 | [14] -0.002 | [15] 0.005 | [16] -0.087 | [17] -0.009 | [18] -0.03 | [19] 0.032 | [20] 0.003

ERMAP (UniProt Q96PL5)
inactive: [1] 0.053 | [2] 0.107 | [3] -0.022 | [4] 0.029 | [5] -0.092 | [6] -0.038 | [7] 0.101 | [8] 0.019 | [9] 0.058 | [10] 0.1 | [11] 0.087 | [12] 0.189 | [13] 0.006 | [14] 0.078 | [15] -0.036 | [16] -0.023 | [17] -0.029 | [18] -0.007 | [19] 0.034 | [20] -0.061

F2 (UniProt P00734)
inactive: [1] 0.066 | [2] 0.062 | [3] -0.026 | [4] -0.225 | [5] 0.149 | [6] -0.214 | [7] -0.041 | [8] 0.086 | [9] 0.148 | [10] 0.117 | [11] -0.03 | [12] 0.332 | [13] 0.064 | [14] -0.071 | [15] 0.007 | [16] -0.031 | [17] -0.011 | [18] -0.044 | [19] -0.042 | [20] 0.176

ERAP1 isoform 2 (UniProt Q9NZ08)
inactive: [1] 0.012 | [2] -0.031 | [3] 0.02 | [4] -0.015 | [5] 0.026 | [6] 0.014 | [7] -0.034 | [8] 0.002 | [9] 0.039 | [10] 0.118 | [11] -0.054 | [12] -0.026 | [13] 0.016 | [14] 0.027 | [15] 0.009 | [16] 0.017 | [17] -0.002 | [18] 0.008 | [19] 0.053 | [20] -0.03
